Experimental data reported in the supplement of paper PMC4604168 (melanoma cell lines).
The list shows a part of the results. Many values rest on one well or one pass, so single values are uncertain.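 Imaging used 1,536-well plates; nuclei positive for cleaved PARP by antibody were divided by total DNA-stained nuclei to yield the apoptosis fraction. Doses for screening kept most cells viable, and cell lines differ markedly in resting and induced cleaved-PARP levels.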

system: UACC62; experiment: cleaved PARP positive nuclei fraction relative to DMSO control; melanoma cells; higher = more apoptosis; conditions: library dose: low library concentration; 72 h

SMILES	cleaved PARP positive nuclei fraction [%]
NC(=O)c1ccc(N(C(N)=O)c2c(F)cccc2F)nc1-c1ccc(F)cc1F + Nc1nc(F)nc2c1ncn2[C@@H]1O[C@H](CO)[C@@H](O)[C@@H]1O [fludarabine] (first compound 0.4 µM, partner dose 0.2 µM)	281
Cn1sc(=O)n(Cc2ccccc2)c1=O + CNC(=O)c1cc(Oc2ccc(NC(=O)Nc3ccc(Cl)c(C(F)(F)F)c3)cc2)ccn1 [sorafenib] (first compound 0.4 µM, partner dose 0.4 µM)	90.4
COc1ccc(C2=N[C@@H](c3ccc(Cl)cc3)[C@@H](c3ccc(Cl)cc3)N2C(=O)N2CCNC(=O)C2)c(OC(C)C)c1 [Nutlin-3] + CN(c1ncccc1CNc1nc(Nc2ccc3c(c2)CC(=O)N3)ncc1C(F)(F)F)S(C)(=O)=O [PF562271] (first compound 0.1 µM, partner dose 0.08 µM)	78
CN(c1ncccc1CNc1nc(Nc2ccc3c(c2)CC(=O)N3)ncc1C(F)(F)F)S(C)(=O)=O + Cn1c(=O)n(-c2ccc(C(C)(C)C#N)cc2)c2c3cc(-c4cnc5ccccc5c4)ccc3ncc21 [NVP-BEZ235] (first compound 0.08 µM, partner dose 0.004 µM)	192
Cn1sc(=O)n(Cc2ccccc2)c1=O + CCN(CC)CCNC(=O)c1c(C)[nH]c(/C=C2\C(=O)Nc3ccc(F)cc32)c1C [sunitinib] (first compound 0.4 µM, partner dose 0.4 µM)	73
CC1(C)CCC(c2ccc(Cl)cc2)=C(CN2CCN(c3ccc(C(=O)NS(=O)(=O)c4ccc(N[C@H](CCN5CCOCC5)CSc5ccccc5)c(S(=O)(=O)C(F)(F)F)c4)cc3)CC2)C1 + Cc1nc(Nc2ncc(C(=O)Nc3c(C)cccc3Cl)s2)cc(N2CCN(CCO)CC2)n1 [dasatanib] (first compound 0.4 µM, partner dose 0.004 µM)	156
Cn1cnc2c(F)c(Nc3ccc(Br)cc3Cl)c(C(=O)NOCCO)cc21 [selumetinib] + Cn1c(Nc2ccc(C(F)(F)F)cc2)nc2cc(Oc3ccnc(-c4ncc(C(F)(F)F)[nH]4)c3)ccc21 [CHIR265] (first compound 0.015 µM, partner dose 0.08 µM)	209
C[C@@H](N)c1ccc(C(=O)Nc2ccnc3[nH]ccc23)cc1 + Nc1ncn([C@H]2C[C@H](O)[C@@H](CO)O2)c(=O)n1 [decitabine] (first compound 0.4 µM, partner dose 0.1 µM)	361
CC1(C)CCC(c2ccc(Cl)cc2)=C(CN2CCN(c3ccc(C(=O)NS(=O)(=O)c4ccc(N[C@H](CCN5CCOCC5)CSc5ccccc5)c(S(=O)(=O)C(F)(F)F)c4)cc3)CC2)C1 + COCC[n+]1c2c(n(Cc3cnccn3)c1C)C(=O)c1ccccc1C2=O [YM155] (first compound 0.4 µM, partner dose 0.0004 µM)	75.6
Cn1sc(=O)n(Cc2ccccc2)c1=O + CS(=O)(=O)CCNCc1ccc(-c2ccc3ncnc(Nc4ccc(OCc5cccc(F)c5)c(Cl)c4)c3c2)o1 [lapatinib] (first compound 0.4 µM, partner dose 0.8 µM)	114
Cn1cnc2c(F)c(Nc3ccc(Br)cc3Cl)c(C(=O)NOCCO)cc21 [selumetinib] + Nc1nc(F)nc2c1ncn2[C@@H]1O[C@H](CO)[C@@H](O)[C@@H]1O [fludarabine] (first compound 0.015 µM, partner dose 0.2 µM)	69.3
CS(=O)(=O)c1ccc(C(=O)Nc2ccc(Cl)c(-c3ccccn3)c2)c(Cl)c1 [vismodegib] + CC(C)C[C@H](NC(=O)[C@H](Cc1ccccc1)NC(=O)c1cnccn1)B(O)O [Bortezomib] (first compound 1 µM, partner dose 0.001 µM)	37.5
CC1(C)CCC(c2ccc(Cl)cc2)=C(CN2CCN(c3ccc(C(=O)NS(=O)(=O)c4ccc(N[C@H](CCN5CCOCC5)CSc5ccccc5)c(S(=O)(=O)C(F)(F)F)c4)cc3)CC2)C1 + C=C(c1ccc(C(=O)O)cc1)c1cc2c(cc1C)C(C)(C)CCC2(C)C [Bexarotene] (first compound 0.4 µM, partner dose 2 µM)	144
CS(=O)(=O)c1ccc(C(=O)Nc2ccc(Cl)c(-c3ccccn3)c2)c(Cl)c1 [vismodegib] + CC(=O)c1c(C)c2cnc(Nc3ccc(N4CCNCC4)cn3)nc2n(C2CCCC2)c1=O [palbociclib] (first compound 1 µM, partner dose 0.04 µM)	66.3
NC(=O)c1ccc(N(C(N)=O)c2c(F)cccc2F)nc1-c1ccc(F)cc1F + C#Cc1cccc(Nc2ncnc3cc(OCCOC)c(OCCOC)cc23)c1 [erlotinib] (first compound 0.4 µM, partner dose 0.8 µM)	290
CS(=O)(=O)c1ccc(C(=O)Nc2ccc(Cl)c(-c3ccccn3)c2)c(Cl)c1 [vismodegib] + Nc1nc(F)nc2c1ncn2[C@@H]1O[C@H](CO)[C@@H](O)[C@@H]1O [fludarabine] (first compound 1 µM, partner dose 0.2 µM)	97.7
NC(=O)c1ccc(N(C(N)=O)c2c(F)cccc2F)nc1-c1ccc(F)cc1F + C=CCNC1=C2C[C@@H](C)C[C@H](OC)[C@H](O)[C@@H](C)/C=C(\C)[C@H](OC(N)=O)[C@@H](OC)/C=C\C=C(/C)C(=O)NC(=CC1=O)C2=O [Tanespimycin] (first compound 0.4 µM, partner dose 0.002 µM)	126
CC(=O)O[C@@]12CO[C@@H]1C[C@H](O)[C@@]1(C)C(=O)[C@H](O)C3=C(C)[C@@H](OC(=O)[C@H](O)[C@@H](NC(=O)OC(C)(C)C)c4ccccc4)C[C@@](O)([C@@H](OC(=O)c4ccccc4)[C@H]21)C3(C)C [Docetaxel] + C=C(c1ccc(C(=O)O)cc1)c1cc2c(cc1C)C(C)(C)CCC2(C)C [Bexarotene] (first compound 0.0001 µM, partner dose 2 µM)	332
CC(=O)O[C@@]12CO[C@@H]1C[C@H](O)[C@@]1(C)C(=O)[C@H](O)C3=C(C)[C@@H](OC(=O)[C@H](O)[C@@H](NC(=O)OC(C)(C)C)c4ccccc4)C[C@@](O)([C@@H](OC(=O)c4ccccc4)[C@H]21)C3(C)C [Docetaxel] + C[C@]1(c2nc3c(C(N)=O)cccc3[nH]2)CCCN1 [Veliparib] (first compound 0.0001 µM, partner dose 1.4 µM)	677
CCN(CC)CCNC(=O)c1c(C)[nH]c(/C=C2\C(=O)Nc3ccc(F)cc32)c1C [sunitinib] + OCc1c[nH]c2ccccc12 [Indole-3-carbinol] (first compound 0.4 µM, partner dose 0.8 µM)	64.8
C[C@]1(O)C[C@@H](c2nc(-c3ccc4ccc(-c5ccccc5)nc4c3)c3c(N)nccn32)C1 + CCCS(=O)(=O)Nc1ccc(F)c(C(=O)c2c[nH]c3ncc(Cl)cc23)c1F [PLX4720] (first compound 0.4 µM, partner dose 0.08 µM)	126
Cn1cnc2c(F)c(Nc3ccc(Br)cc3Cl)c(C(=O)NOCCO)cc21 [selumetinib] + C#Cc1cccc(Nc2ncnc3cc(OCCOC)c(OCCOC)cc23)c1 [erlotinib] (first compound 0.015 µM, partner dose 0.8 µM)	352
Cn1sc(=O)n(Cc2ccccc2)c1=O + OCc1c[nH]c2ccccc12 [Indole-3-carbinol] (first compound 0.4 µM, partner dose 0.8 µM)	48.7
Cn1cnc2c(F)c(Nc3ccc(Br)cc3Cl)c(C(=O)NOCCO)cc21 [selumetinib] + C[C@@H](Oc1cc(-c2cnn(C3CCNCC3)c2)cnc1N)c1c(Cl)ccc(F)c1Cl [Crizotinib] (first compound 0.015 µM, partner dose 0.2 µM)	212
NC(=O)c1ccc(N(C(N)=O)c2c(F)cccc2F)nc1-c1ccc(F)cc1F + Clc1ccc(Nc2nnc(Cc3ccncc3)c3ccccc23)cc1 [vatalanib] (first compound 0.4 µM, partner dose 2 µM)	126
Cn1sc(=O)n(Cc2ccccc2)c1=O + Clc1ccc(Nc2nnc(Cc3ccncc3)c3ccccc23)cc1 [vatalanib] (first compound 0.4 µM, partner dose 2 µM)	62.7
COc1ccc(C2=N[C@@H](c3ccc(Cl)cc3)[C@@H](c3ccc(Cl)cc3)N2C(=O)N2CCNC(=O)C2)c(OC(C)C)c1 [Nutlin-3] + CC(=O)c1c(C)c2cnc(Nc3ccc(N4CCNCC4)cn3)nc2n(C2CCCC2)c1=O [palbociclib] (first compound 0.1 µM, partner dose 0.04 µM)	129
COc1ccc(C2=N[C@@H](c3ccc(Cl)cc3)[C@@H](c3ccc(Cl)cc3)N2C(=O)N2CCNC(=O)C2)c(OC(C)C)c1 [Nutlin-3] + Cn1c(=O)n(-c2ccc(C(C)(C)C#N)cc2)c2c3cc(-c4cnc5ccccc5c4)ccc3ncc21 [NVP-BEZ235] (first compound 0.1 µM, partner dose 0.004 µM)	141
NC(=O)c1ccc(N(C(N)=O)c2c(F)cccc2F)nc1-c1ccc(F)cc1F + C=C(c1ccc(C(=O)O)cc1)c1cc2c(cc1C)C(C)(C)CCC2(C)C [Bexarotene] (first compound 0.4 µM, partner dose 2 µM)	113

Copied from the listing (2 entries):
SMILES	cleaved PARP positive nuclei fraction [%]
NC(=O)c1ccc(N(C(N)=O)c2c(F)cccc2F)nc1-c1ccc(F)cc1F + C=CCNC1=C2C[C@@H](C)C[C@H](OC)[C@H](O)[C@@H](C)/C=C(\C)[C@H](OC(N)=O)[C@@H](OC)/C=C\C=C(/C)C(=O)NC(=CC1=O)C2=O [Tanespimycin] (first compound 0.4 µM, partner dose 0.002 µM)	126
CC(=O)O[C@@]12CO[C@@H]1C[C@H](O)[C@@]1(C)C(=O)[C@H](O)C3=C(C)[C@@H](OC(=O)[C@H](O)[C@@H](NC(=O)OC(C)(C)C)c4ccccc4)C[C@@](O)([C@@H](OC(=O)c4ccccc4)[C@H]21)C3(C)C [Docetaxel] + C=C(c1ccc(C(=O)O)cc1)c1cc2c(cc1C)C(C)(C)CCC2(C)C [Bexarotene] (first compound 0.0001 µM, partner dose 2 µM)	332
